Data reported in patent US20240321457A1, “SYSTEMS FOR AND METHODS OF TREATMENT SELECTION” (THE REGENTS OF THE UNIVERSITY OF CALIFORNIA, priority 2020, published 2024).
These are yes or no findings as the source states them, for the method shown. In cells and extracts the contact can be indirect. Some results given as binding are weak or reduced against the parent protein; the word gives no strength.

Sequences of proteins named here, by UniProt entry; tags and fusion partners are left off. A change or cut given only in a name is not applied to a line headed by its entry. A line that says so, or that is headed by a name, gives the form on record, which may keep a tag or linker. Residues count along the entry.
UniProt Q9UM54: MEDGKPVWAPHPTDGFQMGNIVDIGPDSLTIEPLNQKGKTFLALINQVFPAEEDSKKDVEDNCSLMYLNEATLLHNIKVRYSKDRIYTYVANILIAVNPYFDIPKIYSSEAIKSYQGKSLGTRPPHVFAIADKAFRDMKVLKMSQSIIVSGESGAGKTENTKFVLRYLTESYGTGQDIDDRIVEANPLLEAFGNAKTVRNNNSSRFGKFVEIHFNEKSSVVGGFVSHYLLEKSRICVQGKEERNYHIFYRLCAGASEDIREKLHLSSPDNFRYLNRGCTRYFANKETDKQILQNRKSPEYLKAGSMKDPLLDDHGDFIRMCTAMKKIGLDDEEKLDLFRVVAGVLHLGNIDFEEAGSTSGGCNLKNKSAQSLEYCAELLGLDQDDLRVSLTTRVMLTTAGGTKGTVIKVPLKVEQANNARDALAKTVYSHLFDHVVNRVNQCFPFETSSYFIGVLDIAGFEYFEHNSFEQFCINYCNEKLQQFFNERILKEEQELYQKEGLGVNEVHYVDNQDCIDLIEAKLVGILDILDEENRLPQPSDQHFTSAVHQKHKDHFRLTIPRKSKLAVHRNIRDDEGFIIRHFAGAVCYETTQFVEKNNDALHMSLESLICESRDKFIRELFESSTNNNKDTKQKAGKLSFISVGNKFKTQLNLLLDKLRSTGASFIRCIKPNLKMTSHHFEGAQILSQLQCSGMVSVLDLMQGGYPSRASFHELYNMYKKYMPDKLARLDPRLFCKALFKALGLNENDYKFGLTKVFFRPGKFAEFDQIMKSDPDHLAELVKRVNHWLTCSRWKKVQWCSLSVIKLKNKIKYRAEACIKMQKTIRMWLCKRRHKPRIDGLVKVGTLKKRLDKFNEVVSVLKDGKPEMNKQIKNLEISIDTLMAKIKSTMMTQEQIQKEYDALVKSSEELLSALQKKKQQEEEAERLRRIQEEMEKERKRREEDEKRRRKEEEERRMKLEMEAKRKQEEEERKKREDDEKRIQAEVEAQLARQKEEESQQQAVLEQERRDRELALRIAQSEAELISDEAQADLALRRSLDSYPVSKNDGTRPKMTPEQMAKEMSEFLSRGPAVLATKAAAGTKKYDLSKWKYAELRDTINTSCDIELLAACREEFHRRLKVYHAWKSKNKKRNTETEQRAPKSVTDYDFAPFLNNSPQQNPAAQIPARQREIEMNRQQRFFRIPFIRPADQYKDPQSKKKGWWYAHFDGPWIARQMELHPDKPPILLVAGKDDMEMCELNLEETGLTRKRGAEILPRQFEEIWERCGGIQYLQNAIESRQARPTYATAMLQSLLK
UniProt P38936, residues 2-164: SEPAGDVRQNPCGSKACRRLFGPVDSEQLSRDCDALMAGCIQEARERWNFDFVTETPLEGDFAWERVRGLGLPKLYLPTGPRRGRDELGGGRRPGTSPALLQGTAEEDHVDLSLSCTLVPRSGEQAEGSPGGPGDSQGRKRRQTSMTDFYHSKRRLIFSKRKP
UniProt P46527: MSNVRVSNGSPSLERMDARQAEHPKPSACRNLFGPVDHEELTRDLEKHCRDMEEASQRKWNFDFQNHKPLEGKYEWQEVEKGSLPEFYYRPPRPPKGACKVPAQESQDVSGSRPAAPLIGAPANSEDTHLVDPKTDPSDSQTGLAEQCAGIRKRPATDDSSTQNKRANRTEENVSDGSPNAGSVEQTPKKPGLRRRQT
UniProt Q9P219: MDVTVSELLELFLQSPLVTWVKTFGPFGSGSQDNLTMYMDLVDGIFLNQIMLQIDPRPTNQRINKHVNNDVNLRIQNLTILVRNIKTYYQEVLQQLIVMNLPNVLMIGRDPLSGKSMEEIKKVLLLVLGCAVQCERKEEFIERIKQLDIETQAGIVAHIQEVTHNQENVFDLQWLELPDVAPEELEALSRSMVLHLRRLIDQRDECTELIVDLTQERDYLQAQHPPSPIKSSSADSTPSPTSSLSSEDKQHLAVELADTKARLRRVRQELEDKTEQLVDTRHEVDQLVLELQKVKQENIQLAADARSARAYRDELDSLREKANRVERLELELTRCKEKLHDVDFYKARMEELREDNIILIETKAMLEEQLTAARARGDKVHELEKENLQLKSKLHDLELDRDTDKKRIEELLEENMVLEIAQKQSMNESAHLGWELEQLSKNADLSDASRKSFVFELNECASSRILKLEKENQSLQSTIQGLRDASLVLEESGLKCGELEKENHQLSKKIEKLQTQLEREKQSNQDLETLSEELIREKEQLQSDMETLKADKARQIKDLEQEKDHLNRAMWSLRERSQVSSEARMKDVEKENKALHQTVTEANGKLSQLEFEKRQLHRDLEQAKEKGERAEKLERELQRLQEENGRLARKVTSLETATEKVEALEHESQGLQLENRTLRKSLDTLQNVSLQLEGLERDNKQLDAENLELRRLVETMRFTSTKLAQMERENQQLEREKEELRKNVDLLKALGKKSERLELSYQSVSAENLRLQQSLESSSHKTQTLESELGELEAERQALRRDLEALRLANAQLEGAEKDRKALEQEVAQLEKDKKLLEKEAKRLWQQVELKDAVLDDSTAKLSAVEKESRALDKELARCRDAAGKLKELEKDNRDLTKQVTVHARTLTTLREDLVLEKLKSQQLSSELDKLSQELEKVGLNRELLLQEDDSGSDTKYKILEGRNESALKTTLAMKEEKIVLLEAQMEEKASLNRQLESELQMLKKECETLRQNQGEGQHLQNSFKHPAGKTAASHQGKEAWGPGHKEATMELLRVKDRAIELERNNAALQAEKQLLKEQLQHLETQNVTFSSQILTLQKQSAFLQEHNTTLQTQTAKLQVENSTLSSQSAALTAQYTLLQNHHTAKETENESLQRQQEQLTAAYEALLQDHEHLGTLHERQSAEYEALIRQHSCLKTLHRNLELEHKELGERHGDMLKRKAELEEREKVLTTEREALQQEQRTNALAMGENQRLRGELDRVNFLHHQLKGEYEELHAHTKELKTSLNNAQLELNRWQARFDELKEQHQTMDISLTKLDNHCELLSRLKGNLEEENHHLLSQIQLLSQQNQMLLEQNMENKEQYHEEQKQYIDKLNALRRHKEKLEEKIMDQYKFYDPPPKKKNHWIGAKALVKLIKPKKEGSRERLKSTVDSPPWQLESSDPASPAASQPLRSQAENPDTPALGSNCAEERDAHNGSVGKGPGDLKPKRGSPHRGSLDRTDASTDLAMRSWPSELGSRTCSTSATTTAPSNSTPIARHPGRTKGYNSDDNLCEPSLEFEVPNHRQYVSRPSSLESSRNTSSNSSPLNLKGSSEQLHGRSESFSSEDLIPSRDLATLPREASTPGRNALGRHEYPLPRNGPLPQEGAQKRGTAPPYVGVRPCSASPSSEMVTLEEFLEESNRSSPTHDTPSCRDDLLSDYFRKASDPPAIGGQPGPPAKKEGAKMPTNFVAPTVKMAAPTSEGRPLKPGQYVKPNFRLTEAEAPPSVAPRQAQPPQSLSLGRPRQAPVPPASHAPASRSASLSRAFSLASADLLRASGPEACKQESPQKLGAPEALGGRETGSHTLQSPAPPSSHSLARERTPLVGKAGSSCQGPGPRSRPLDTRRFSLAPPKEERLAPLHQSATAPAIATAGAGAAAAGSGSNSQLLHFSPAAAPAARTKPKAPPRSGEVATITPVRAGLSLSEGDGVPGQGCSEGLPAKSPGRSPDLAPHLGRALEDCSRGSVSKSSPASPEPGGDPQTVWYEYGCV
UniProt P09874, residues 2-1014: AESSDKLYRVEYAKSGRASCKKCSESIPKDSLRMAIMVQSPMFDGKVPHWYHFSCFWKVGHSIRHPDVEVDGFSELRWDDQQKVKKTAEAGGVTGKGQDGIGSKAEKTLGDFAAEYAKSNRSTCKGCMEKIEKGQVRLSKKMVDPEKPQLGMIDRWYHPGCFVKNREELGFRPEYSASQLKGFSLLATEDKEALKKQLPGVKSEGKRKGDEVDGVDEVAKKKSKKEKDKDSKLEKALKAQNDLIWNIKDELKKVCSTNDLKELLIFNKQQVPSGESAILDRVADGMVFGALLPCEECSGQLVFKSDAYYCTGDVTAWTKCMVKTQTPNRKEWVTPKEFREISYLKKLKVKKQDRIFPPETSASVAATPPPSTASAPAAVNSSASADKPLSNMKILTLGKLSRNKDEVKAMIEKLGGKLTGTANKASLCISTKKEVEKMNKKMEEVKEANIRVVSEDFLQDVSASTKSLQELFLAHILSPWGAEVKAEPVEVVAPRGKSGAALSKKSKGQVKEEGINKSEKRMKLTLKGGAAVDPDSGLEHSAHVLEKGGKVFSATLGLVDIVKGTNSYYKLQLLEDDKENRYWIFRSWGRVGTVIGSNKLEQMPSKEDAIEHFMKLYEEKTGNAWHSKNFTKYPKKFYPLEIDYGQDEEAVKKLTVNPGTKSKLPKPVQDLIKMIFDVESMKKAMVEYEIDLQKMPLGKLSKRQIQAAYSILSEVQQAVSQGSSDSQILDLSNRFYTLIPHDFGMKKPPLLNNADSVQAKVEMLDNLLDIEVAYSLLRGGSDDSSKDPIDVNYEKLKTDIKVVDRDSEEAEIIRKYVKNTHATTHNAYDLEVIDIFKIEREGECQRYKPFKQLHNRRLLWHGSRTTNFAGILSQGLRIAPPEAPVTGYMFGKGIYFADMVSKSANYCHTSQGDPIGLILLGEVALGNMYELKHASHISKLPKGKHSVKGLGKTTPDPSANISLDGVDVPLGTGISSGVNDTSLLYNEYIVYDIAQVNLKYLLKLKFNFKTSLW
UniProt O96017: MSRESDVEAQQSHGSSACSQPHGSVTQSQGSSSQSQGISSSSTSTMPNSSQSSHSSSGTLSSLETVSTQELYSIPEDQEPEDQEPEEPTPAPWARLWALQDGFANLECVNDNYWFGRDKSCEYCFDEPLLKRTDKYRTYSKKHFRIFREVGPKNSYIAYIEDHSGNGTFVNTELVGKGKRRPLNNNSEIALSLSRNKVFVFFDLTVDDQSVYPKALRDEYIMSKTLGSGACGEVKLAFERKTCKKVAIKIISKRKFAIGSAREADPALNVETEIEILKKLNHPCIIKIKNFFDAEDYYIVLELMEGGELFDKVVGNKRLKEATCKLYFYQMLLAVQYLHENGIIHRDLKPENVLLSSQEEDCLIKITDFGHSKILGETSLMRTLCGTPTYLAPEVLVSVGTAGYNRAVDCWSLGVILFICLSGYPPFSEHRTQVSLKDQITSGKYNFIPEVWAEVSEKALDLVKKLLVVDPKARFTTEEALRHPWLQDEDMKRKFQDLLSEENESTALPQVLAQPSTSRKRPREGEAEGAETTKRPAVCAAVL
CHEK2 1100delC (O96017, form named): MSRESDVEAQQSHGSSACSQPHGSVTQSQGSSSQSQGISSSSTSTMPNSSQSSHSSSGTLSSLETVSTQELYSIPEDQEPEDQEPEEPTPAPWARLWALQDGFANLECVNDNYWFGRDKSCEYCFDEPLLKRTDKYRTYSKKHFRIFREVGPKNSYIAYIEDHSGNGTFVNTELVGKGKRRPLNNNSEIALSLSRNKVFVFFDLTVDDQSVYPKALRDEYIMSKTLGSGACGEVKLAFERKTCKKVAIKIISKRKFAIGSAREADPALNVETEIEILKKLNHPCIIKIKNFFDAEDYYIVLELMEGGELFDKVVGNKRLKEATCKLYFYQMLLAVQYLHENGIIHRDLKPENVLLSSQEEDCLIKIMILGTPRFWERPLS
UniProt P24385: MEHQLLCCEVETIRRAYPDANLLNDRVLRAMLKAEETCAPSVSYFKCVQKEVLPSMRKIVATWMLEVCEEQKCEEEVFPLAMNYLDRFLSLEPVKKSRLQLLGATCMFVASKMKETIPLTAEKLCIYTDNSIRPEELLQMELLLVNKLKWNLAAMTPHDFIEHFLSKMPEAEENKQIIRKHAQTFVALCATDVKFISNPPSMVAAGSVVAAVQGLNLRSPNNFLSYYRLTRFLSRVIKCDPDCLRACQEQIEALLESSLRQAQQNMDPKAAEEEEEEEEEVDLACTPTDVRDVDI
UniProt P01106, residues 16-454: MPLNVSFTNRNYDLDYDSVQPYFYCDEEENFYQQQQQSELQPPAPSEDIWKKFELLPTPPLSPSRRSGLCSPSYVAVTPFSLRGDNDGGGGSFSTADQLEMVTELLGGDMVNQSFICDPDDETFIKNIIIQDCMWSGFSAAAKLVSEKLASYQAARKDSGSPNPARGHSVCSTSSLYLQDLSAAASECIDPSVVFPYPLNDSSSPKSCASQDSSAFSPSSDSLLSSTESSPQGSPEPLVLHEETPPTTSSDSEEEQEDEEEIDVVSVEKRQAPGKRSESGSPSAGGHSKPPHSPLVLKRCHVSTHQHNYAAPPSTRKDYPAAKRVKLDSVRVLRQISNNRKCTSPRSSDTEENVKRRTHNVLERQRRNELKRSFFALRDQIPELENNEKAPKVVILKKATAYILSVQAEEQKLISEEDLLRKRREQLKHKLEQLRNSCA

Experiments:
[1] = biological target: T1, SPECCI (human) (UniProt Q5M775); test: AP-MS, WT vs mutant 3xFLAG bait
T1 sequence (looked up): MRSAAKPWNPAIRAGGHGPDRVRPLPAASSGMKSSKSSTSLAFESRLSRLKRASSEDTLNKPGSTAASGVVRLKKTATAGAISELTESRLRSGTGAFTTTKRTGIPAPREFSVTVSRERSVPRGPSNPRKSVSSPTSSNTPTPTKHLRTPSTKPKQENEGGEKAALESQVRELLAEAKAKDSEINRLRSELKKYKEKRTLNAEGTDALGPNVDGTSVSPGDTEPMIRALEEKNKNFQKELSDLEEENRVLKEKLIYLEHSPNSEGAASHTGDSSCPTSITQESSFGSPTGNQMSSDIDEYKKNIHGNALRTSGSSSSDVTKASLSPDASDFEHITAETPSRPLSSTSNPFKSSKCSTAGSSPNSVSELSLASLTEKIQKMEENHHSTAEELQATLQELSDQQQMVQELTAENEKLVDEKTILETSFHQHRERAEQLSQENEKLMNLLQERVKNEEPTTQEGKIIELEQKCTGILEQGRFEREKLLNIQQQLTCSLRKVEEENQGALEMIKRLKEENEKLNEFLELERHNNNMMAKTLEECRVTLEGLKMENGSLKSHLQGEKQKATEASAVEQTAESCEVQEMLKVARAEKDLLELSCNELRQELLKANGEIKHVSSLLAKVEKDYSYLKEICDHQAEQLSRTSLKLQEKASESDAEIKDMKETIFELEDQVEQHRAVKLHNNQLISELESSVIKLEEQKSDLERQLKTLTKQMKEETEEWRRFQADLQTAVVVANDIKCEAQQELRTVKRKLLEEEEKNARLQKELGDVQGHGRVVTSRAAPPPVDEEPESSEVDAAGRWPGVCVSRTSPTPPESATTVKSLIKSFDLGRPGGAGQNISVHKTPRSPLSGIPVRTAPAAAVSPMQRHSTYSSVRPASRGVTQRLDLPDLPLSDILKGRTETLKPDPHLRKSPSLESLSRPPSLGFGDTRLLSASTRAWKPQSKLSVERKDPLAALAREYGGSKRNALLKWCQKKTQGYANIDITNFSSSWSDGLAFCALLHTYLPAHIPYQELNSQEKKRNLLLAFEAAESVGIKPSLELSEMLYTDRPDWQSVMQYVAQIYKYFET

[2] = biological target: MYH10 (human) (UniProt P35580); test: AP-MS, WT vs mutant 3xFLAG bait
[3] = biological target: MYO5B (human) (UniProt Q9ULV0); test: AP-MS, WT vs mutant 3xFLAG bait
[4] = biological target: SIPA1L3 (human) (UniProt O60292); test: AP-MS, WT vs mutant 3xFLAG bait
[5] = biological target: MYO6 (human) (UniProt Q9UM54); test: AP-MS, WT vs mutant 3xFLAG bait
[6] = biological target: CDKN1A (human) (UniProt P38936); test: AP-MS, 3xFLAG bait, CAL-33, SCC-25 and HET-1A cells
[7] = biological target: CDKN1B (human) (UniProt P46527); test: as above
[8] = biological target: CCDC88C (human) (UniProt Q9P219); test: AP-MS, 3xFLAG bait, CAL-33 cells
[9] = biological target: CCDC88C (human) (UniProt Q9P219); test: AP-MS, differential interaction scoring
[10] = biological target: PARP1 (human) (UniProt P09874); test: AP-MS, 3xFLAG bait, HNSCC/HET-1A cell lines
[11] = biological target: TOP1 (human) (UniProt P11387); test: AP-MS, 3xFLAG bait, HNSCC/HET-1A cell lines

Row | binding [1] | binding [2] | binding [3] | binding [4] | binding [5] | Substance | also measured
1 | binds | binds | binds | binds | binds | CHEK2 1100delC (from UniProt O96017 1-366) (enzyme) | 
2 | binds | binds | binds | binds | binds | CHEK2 K373E (from UniProt O96017 1-543) (enzyme) | 
3 |  |  |  |  |  | Cyclin D1 (from UniProt P24385 1-295) | binding [6]: binds; binding [7]: binds
4 |  |  |  |  |  | ERBB2 (from UniProt P04626 23-1255) (receptor) | binding [8]: binds; binding [9]: binds
5 |  |  |  |  |  | MYC (from UniProt P01106 16-454) | binding [10]: binds; binding [11]: binds
